Measured values: patent US20170258948A1 (Bristol-Myers Squibb, published 2017)
These are yes or no findings as the source states them, for the method shown. Some entries that bind do so weakly or less than the wild type. Each block holds one binder with its values, some of them ahead of it.

Sequences of proteins named here, by UniProt entry; tags and fusion partners are left off. Residues count along the entry.
UniProt Q9NZQ7, residues 19-290: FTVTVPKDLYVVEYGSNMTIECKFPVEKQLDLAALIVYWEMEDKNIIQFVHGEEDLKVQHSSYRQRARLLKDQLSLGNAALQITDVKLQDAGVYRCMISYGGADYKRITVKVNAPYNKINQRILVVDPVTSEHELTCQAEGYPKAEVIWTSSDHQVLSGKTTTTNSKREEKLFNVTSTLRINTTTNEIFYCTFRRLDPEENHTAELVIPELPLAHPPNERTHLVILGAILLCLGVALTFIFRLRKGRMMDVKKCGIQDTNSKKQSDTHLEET

Tests used:
[1] = biological target: human PD-L1 expressed on cells (hPD-L1-positive L2987 human lung carcinoma cells; L2987 xenograft and human lung tumor tissue sections) (human) (UniProt Q9NZQ7); assay: in vivo PET time-activity curves of tumor regions in mice with bilateral L2987 and HT-29 xenografts, 0 to 120 min after tracer injection
[2] = biological target: human PD-L1 expressed on cells (hPD-L1-positive L2987 human lung carcinoma cells; L2987 xenograft and human lung tumor tissue sections) (human) (UniProt Q9NZQ7); assay: in vitro autoradiography of tissue sections
[3] = biological target: human PD-L1 expressed on cells (hPD-L1-positive L2987 human lung carcinoma cells; L2987 xenograft and human lung tumor tissue sections) (human) (UniProt Q9NZQ7); assay: in vitro autoradiography, cold A02 at 0.025, 0.25, 2.5 and 25 nM against 0.25 nM ^18F-A02 as competitor
[4] = biological target: human PD-L1 expressed on cells (hPD-L1-positive L2987 human lung carcinoma cells; L2987 xenograft and human lung tumor tissue sections) (human) (UniProt Q9NZQ7); assay: competition with 0.25 nM 18F-DBCO-A02 tracer, in vitro autoradiography of L2987 xenograft and human lung tumor sections, cold A02 at 0.025, 0.25, 2.5 and 25 nM
[5] = biological target: human PD-L1 expressed on cells (hPD-L1-positive L2987 human lung carcinoma cells; L2987 xenograft and human lung tumor tissue sections) (human) (UniProt Q9NZQ7); assay: competition with the 64Cu-NODAGA-E01 tracer on L2987 cells, one concentration of cold E01 (450 nM per paragraph 474, not printed on the sheet), gamma counter

binding [1]: binds
B1: ^64Cu-A02-NODAGA (designed binder)
chain: GVSDVPRDLEVVAATPTSLLISWSYDGPIDRYYRITYGETGGNSPVQEFTVPPDQKTATISGLKPGVDYTITVYAVRLEEAHYNREFPISINYRTPC
modifications: C-terminal cysteine (of the added PC) linked to maleimide-NODAGA chelating ^64Cu

binding [2]: binds | binding [3]: binds | binding [4]: binds
B2: cold (unlabeled) A02 Adnectin (designed binder)
chain: EVVAATPTSLLISWSYDGPIDRYYRITYGETGGNSPVQEFTVPPDQKTATISGLKPGVDYTITVYAVRLEEAHYNREFPISINYRT

binding [5]: binds
B3: cold (unlabeled) E01 Adnectin (designed binder)
chain: EVVAATPTSLLISWRAQLSPSFYYRITYGETGGNSPVQEFTVPNDVMTATISGLKPGVDYTITVYAVTTHGVYFYSPISINYRT
